The values that follow come from paper PMC7552405.

By UniProt entry, the sequences of proteins in these tests, tags left out.
UniProt Q9BVC4: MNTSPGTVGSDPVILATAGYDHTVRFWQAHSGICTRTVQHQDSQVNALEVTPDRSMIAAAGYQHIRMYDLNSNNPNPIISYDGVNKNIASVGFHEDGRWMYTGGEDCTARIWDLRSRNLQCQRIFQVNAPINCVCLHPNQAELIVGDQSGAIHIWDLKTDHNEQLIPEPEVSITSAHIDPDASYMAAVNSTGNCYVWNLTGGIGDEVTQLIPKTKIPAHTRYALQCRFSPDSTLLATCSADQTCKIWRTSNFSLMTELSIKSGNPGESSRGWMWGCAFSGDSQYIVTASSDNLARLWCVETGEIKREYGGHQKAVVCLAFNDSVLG
UniProt Q8K4Q0: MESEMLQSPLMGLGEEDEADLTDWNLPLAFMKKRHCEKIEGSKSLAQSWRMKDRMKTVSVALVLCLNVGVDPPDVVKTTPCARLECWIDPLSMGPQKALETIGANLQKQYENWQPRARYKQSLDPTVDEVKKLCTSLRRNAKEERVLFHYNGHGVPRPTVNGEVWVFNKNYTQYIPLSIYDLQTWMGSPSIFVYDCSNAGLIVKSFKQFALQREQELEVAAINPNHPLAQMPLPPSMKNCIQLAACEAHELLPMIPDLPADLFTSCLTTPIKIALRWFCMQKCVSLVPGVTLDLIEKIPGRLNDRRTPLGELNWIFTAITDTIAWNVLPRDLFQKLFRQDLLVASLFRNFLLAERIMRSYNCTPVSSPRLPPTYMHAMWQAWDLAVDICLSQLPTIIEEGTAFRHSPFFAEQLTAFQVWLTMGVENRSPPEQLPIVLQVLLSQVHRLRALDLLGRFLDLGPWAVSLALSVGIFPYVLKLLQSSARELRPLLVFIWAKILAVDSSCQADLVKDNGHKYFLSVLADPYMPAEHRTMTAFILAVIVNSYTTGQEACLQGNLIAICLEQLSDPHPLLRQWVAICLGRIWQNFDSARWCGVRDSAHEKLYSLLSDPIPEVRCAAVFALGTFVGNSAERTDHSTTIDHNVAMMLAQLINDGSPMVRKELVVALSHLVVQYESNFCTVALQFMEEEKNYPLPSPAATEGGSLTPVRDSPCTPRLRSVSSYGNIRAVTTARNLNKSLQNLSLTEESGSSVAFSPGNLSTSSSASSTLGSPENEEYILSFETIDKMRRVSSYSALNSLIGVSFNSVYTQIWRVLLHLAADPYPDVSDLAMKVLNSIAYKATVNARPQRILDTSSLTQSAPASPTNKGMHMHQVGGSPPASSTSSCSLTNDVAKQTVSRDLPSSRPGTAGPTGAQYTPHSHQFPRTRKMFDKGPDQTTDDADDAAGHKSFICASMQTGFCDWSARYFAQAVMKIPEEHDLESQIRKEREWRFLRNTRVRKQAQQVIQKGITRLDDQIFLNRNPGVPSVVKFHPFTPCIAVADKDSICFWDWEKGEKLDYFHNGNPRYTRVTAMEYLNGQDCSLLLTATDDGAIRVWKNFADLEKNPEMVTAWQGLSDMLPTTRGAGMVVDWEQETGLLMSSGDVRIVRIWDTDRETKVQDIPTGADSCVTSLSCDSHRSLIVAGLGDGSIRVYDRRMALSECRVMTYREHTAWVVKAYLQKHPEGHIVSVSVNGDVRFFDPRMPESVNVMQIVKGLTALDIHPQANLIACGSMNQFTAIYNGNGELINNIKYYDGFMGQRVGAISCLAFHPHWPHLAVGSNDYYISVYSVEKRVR

These are yes or no findings as the source states them, for the method shown. Binding seen in cells or lysates may run through a third protein. Some binding calls cover weakened binding; strength is not graded here.

The experiment has as its target EGFP-mLST8 (UniProt Q9BVC4). Nature of the experiment: co-IP; EGFP or EGFP-mLST8 precipitated with GFP-Trap beads from lysates (CHAPS buffer: 40 mM HEPES pH 7.5, 120 mM NaCl, 0.3% CHAPS) of stably transduced Ctsd+/+ and Ctsd-/- PyMT cells; co-precipitated proteins detected by Western blot.

Take Raptor (from UniProt Q8K4Q0 1-1335): the binding result is “binds”.
